Source: doi:10.1101/2025.09.20.676678
Results are given in words; binding and its absence hold for the method and conditions named. Binding seen in cells or lysates may run through a third protein. Some binding calls cover weakened binding; strength is not graded here.

Sequences of proteins named here, by UniProt entry; tags and fusion partners are left off.
UniProt Q15059: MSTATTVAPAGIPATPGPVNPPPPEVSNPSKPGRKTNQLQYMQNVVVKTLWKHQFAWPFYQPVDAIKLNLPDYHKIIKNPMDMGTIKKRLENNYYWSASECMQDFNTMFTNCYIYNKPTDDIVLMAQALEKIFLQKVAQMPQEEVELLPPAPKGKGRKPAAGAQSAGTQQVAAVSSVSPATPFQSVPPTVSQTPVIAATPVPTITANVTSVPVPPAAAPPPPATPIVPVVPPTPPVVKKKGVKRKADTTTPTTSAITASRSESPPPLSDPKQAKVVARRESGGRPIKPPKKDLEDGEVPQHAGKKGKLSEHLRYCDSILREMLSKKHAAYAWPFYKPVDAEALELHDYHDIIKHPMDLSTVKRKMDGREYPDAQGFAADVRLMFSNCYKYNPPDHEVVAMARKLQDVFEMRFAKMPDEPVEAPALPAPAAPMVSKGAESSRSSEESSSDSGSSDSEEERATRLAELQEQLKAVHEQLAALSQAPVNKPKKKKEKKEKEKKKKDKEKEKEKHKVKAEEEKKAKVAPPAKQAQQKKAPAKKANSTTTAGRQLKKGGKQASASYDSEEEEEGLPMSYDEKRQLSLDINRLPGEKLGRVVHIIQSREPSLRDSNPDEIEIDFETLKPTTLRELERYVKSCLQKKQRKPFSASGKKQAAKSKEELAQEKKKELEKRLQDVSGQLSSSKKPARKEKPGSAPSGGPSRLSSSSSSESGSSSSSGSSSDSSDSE
UniProt P25440: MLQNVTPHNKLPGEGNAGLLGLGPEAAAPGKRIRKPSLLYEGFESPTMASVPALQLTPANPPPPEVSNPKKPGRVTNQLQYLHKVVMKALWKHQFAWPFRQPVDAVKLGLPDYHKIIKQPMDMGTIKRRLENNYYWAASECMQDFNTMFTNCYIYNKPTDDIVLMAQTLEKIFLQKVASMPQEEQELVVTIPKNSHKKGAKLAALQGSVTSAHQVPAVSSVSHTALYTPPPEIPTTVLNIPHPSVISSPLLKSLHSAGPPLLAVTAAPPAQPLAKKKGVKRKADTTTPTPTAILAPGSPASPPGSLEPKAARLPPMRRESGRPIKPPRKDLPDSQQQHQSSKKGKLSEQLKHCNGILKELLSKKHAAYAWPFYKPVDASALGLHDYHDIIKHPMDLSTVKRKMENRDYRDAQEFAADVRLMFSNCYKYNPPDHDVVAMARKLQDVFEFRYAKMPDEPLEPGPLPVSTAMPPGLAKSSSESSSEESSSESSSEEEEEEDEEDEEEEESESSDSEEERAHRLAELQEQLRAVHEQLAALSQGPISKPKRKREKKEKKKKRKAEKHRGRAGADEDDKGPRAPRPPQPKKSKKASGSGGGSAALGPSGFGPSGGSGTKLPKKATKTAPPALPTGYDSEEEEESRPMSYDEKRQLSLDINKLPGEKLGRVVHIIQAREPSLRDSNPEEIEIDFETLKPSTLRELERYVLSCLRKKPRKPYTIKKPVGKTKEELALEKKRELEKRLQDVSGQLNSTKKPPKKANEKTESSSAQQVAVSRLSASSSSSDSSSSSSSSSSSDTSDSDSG
UniProt P21675: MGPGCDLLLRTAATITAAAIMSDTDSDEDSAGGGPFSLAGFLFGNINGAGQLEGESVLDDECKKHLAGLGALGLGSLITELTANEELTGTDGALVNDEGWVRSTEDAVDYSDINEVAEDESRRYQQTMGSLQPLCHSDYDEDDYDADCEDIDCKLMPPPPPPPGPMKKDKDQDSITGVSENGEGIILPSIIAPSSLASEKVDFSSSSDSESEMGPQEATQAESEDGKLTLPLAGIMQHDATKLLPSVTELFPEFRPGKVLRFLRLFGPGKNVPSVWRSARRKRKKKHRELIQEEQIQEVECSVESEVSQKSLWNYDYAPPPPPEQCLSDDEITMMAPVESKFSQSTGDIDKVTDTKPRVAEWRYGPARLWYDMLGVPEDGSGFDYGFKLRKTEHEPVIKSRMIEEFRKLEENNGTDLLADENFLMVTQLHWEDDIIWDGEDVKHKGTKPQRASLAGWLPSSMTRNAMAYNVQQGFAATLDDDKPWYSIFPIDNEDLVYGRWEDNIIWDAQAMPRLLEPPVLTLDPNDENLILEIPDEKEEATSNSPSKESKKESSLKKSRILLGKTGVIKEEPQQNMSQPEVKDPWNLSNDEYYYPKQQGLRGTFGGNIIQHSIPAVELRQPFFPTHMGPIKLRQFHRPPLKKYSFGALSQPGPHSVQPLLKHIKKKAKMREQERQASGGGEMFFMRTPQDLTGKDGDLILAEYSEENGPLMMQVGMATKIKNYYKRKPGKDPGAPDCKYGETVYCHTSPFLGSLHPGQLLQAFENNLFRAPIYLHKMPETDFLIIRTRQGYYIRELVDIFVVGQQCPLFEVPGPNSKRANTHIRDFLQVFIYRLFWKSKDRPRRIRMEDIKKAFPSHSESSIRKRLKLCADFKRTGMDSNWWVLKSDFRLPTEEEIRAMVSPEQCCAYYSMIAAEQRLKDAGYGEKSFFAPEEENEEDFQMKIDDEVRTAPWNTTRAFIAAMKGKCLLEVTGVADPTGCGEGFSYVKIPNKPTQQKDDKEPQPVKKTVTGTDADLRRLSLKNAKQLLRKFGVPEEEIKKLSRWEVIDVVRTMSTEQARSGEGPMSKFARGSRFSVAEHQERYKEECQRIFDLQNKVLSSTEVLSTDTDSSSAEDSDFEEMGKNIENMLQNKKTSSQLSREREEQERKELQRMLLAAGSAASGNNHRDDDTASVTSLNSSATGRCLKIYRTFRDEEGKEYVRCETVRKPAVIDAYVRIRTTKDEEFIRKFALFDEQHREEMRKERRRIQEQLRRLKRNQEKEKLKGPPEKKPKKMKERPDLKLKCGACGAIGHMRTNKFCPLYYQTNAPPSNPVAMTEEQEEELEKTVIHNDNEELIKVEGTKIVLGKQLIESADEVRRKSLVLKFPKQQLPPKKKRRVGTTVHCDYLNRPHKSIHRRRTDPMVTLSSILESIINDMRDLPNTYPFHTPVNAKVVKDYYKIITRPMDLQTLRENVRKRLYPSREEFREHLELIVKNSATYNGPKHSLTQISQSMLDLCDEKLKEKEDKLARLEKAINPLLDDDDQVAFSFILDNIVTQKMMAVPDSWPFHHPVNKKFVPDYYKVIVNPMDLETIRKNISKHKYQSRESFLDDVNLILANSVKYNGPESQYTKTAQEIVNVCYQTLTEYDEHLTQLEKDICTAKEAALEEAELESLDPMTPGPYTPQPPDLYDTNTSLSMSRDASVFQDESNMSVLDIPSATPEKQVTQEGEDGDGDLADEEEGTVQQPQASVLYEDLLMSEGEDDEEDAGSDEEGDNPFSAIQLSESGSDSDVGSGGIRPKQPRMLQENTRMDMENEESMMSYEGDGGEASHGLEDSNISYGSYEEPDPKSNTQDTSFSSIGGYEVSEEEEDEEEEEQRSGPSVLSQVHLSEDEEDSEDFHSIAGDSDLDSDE
UniProt P49848: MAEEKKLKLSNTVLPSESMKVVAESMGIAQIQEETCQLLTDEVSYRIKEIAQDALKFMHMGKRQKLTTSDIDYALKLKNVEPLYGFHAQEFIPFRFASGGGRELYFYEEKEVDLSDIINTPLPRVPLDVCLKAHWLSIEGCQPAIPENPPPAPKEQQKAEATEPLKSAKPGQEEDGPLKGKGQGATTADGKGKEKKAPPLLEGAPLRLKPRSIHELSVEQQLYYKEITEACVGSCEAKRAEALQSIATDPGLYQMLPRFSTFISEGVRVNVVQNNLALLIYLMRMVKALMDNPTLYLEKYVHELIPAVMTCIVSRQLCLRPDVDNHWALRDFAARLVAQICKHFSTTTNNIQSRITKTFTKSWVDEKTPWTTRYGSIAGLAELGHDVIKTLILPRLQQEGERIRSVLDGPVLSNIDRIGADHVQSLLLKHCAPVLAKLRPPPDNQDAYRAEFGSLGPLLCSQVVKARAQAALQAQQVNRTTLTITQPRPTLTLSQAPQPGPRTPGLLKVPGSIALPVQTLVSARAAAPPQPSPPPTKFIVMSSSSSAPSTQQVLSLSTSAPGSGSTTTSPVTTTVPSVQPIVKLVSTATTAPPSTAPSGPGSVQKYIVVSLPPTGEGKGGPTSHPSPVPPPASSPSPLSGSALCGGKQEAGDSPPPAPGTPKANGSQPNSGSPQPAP
UniProt P20226: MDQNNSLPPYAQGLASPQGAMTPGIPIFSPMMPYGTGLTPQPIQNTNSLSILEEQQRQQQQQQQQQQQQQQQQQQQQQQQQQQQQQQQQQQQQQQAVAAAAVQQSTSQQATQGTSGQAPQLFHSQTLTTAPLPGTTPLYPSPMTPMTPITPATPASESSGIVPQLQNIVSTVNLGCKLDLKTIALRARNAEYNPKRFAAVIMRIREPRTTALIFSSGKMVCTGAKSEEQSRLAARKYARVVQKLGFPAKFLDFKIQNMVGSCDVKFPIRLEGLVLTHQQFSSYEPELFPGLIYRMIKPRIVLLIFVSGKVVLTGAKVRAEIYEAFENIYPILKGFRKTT

Legend:
Experiment in all cases: co-IP
[1] = molecular target: GFP-tagged BRD3 (full-length) (UniProt Q15059)
[2] = molecular target: endogenous, V5-tagged BRD2 of the BRD2-IAA7 degron line (E2) (human (endogenous in DLD-1)) (UniProt P25440)
[3] = molecular target: GFP-tagged and nuclear-localized full length BRD2 (GFP-BRD2FL) (UniProt P25440)

| binding [1] | binding [2] | binding [3] | Substance |
| --- | --- | --- | --- |
| binds | binds | binds | TAF1 (TFIID subunit) (from UniProt P21675 1-1893) |
| binds |  | binds | TAF6 (TFIID subunit) (from UniProt P49848 1-677) |
| binds | binds | binds | TBP (TFIID subunit) (from UniProt P20226 1-339) |
